The values below come from article PMC5709735, “Real‐time detection of condensin‐driven DNA compaction reveals a multistep binding mechanism” (The EMBO Journal, 2017).

Residue numbers refer to the chain shown, from its start. These are yes or no findings as the source states them, for the method shown. Some results given as binding are weak or reduced against the parent protein; the word gives no strength.

For one experiment, the target named is T1, Brn1 (S. cerevisiae) (UniProt P38170).
T1 sequence: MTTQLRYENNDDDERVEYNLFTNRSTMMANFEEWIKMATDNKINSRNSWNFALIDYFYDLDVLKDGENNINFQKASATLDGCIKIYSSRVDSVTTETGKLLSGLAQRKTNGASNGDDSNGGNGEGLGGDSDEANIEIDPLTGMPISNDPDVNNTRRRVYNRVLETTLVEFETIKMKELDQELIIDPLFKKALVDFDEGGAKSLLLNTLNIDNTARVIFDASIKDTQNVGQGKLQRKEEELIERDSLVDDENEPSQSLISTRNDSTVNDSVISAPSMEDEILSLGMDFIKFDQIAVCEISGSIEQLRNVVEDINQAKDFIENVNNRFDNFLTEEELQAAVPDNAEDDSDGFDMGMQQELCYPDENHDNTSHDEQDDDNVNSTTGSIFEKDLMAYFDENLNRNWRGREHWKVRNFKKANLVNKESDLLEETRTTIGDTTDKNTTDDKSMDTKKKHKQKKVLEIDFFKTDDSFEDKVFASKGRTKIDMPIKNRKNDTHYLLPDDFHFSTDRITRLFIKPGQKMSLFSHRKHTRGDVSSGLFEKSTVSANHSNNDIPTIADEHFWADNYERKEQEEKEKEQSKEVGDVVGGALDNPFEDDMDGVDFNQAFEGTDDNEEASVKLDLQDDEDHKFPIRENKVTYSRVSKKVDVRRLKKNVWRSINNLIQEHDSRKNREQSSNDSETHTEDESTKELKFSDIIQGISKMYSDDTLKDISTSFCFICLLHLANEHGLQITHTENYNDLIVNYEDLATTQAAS
Nature of the experiment: tandem affinity chromatography + SEC; subunits co-overexpressed in budding yeast; complexes purified from interphase cell extracts by the His12 tag on Brn1 and the triple StrepII tag on Smc4, followed by a gel filtration step.

Experiment [1] deals with T2, Brn1 K409D, R411D, K414D, K451D, K452D, K456D, K457D (S. cerevisiae) (UniProt P38170).
T2 sequence: T1 sequence with K409D, R411D, K414D, K451D, K452D, K456D, K457D
The description is as above.

B1: Ycs4 (protein, UniProt Q06156 1-1176)
chain: MSGFSLSEYLTKFQTTDRESYPRLQDPSRELNVIIDQLAVSPEQIDASPDSLEALIDLCHDFPHLTPKLQTQLSYLISSSLSNLSKDIKANLSSNVNFTEIGGLIPQWKRHLEEYGYLIQVLLTFLQDELHKVSSQSTNLNRSAKNSKNDSANVELFKRDCNQMENLLESITKLLEINLSKIFQTTPEKDLFIGLFTRPLFVLLEIEPVTKVSSLKMFIQRILAMCVKNHGQSSSIQSSLMTNLTYFLHLSVFNAELLKLLNDEYNYPQLTEDILKEISTRVFNAKDTTGPKAISNFLIKLSELSPGIMLRQMNLVITLLNNSSITLRCSVVEACGNIVAELAQDPQTMEHYKQQIAVLIELLEERFQDSNPYVRTKAIQGCSKICDLSSKFNKSKAKFTSLAVRSLQDRSSLVRRNSVKLLSKLLLKHPFKAIHGSQLRLSEWEEYLKGSESQLNSTLKKVESQETLNDTIERSLIEEEVEQDEGQCRTELEGSFNKSAELSRIENEVENINATNTSVLMKLKLMIVYYKDAISFIKEIHKSIELISNLLFSKNRNEVLESMDFLVLADAFDIELSEFGIKKMLHLVWMKGTNDEGTSISVHLIECYKQLFLTAPDSCNMQEKAAHIAKNLINLSIGASIADLASLEQLLGMMYEQKLIDQHVINILWAIYNSASKASMQKEQNVNNRDSEKGFSKEQIHGSIIILGMLSLADNEIALKGLESLLNIGLGAVGLKDLTLCRYSCLALERMVPKRSTIITKAINQELEDVAVKKLYAIIINYTKDNEYYPMCEQALSALFTISSKPDILATDLIREKTMMTFGKPEEEDSILSLEQSSRVVSLSQLLFIVGQVAIKTLVYLEKCEAEFKKRKIEAETRNGKVKNQGADVTNTTQDNGGDKELEMIGGTNEDDFTDAIQFVKENELLFGEKSILGKFCPIVEEIVSNSSRFSDPMLQRTATLCLEKLMCLSSKYCEKSLPLLITVMEKSPDPTIRSNAVLGLGDMAVCFNNLVDENTDYLYRRLHDENLMVQRTCLMTVTFLILAGQVKVKGQLGEMAKCLDNPDQGISDMCRLFFTELASKDNAIYNGFIDIFSNLSSDDLLGKESFKKIIKFLLTFIDKERHQKQLNEKLVGRLRKCETQKQWDDIAFVLNNLPYKNEDVTALLEQGFKVVSAKE
Turning to B1, the binding entry (with Brn1 (S. cerevisiae); in experiment [1]) was “binds” each time.
